Test results taken from article PMC5083101.
Results are given in words; binding and its absence hold for the method and conditions named. Binding seen in cells or lysates may run through a third protein. Some binding calls cover weakened binding; strength is not graded here.

Sequences of proteins named here, by UniProt entry; tags and fusion partners are left off. Residues count along the entry.
UniProt P02769, residues 25-607: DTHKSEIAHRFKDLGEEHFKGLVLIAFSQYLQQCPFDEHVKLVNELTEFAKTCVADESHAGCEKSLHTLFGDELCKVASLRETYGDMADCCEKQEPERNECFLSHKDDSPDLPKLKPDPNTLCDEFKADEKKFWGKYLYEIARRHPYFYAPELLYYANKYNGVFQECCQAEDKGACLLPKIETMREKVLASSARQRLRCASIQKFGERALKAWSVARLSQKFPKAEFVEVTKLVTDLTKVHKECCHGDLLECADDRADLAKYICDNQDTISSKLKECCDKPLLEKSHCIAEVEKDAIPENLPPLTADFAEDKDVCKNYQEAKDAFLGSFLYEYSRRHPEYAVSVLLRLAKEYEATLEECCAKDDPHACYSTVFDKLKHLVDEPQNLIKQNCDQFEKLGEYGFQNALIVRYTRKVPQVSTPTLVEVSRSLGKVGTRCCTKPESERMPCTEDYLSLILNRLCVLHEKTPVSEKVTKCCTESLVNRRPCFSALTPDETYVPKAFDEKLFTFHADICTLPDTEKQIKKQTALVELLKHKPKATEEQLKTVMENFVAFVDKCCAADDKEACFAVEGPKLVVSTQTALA
UniProt O19132: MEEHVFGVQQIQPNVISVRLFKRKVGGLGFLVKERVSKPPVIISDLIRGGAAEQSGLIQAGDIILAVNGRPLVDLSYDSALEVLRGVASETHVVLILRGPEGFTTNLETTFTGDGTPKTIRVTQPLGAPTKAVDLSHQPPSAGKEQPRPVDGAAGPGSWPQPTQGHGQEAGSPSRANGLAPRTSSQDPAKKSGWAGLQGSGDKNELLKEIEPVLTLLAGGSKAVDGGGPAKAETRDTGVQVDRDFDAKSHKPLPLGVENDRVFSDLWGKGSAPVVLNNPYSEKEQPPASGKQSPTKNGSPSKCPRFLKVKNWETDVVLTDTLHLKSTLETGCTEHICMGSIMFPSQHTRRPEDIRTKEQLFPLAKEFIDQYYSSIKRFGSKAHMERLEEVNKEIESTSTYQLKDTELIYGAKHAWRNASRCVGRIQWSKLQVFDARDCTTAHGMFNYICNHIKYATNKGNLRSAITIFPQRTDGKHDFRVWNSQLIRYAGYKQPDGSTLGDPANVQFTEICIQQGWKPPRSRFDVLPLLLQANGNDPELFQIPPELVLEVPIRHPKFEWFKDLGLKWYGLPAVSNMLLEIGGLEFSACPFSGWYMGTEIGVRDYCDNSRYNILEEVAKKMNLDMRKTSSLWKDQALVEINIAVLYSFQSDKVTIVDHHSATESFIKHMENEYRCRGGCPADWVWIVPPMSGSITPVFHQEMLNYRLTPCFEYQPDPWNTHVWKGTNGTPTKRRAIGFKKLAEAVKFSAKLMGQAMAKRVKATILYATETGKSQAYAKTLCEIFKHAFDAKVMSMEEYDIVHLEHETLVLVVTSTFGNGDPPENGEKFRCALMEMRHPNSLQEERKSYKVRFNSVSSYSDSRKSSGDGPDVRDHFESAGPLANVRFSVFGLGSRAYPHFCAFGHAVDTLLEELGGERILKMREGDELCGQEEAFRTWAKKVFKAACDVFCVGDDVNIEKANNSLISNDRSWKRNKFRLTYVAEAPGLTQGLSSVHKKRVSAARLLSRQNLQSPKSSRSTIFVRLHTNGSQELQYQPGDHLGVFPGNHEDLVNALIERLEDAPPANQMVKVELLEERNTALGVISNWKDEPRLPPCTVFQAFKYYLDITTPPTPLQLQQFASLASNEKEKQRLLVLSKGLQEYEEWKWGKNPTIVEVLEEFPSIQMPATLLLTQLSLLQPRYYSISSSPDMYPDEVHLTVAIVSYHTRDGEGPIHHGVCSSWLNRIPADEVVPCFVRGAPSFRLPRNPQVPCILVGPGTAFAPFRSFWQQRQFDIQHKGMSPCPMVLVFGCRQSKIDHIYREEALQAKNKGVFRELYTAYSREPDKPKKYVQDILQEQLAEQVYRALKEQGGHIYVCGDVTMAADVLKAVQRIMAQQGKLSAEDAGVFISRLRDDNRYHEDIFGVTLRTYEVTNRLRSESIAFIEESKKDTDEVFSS

How the values were obtained:
[1] = target: T1, alpha-dystroglycan (rabbit skeletal muscle) (rabbit (endogenous in skeletal muscle)) (UniProt Q28685); test: co-IP; anti-α-DG antibody IIH6 coupled to CNBr-activated Sepharose; WGA-enriched, digitonin-solubilised rabbit skeletal muscle microsomes; 0.1% digitonin, 50 mM Tris-HCl pH 7.4, 150 mM NaCl; eluted in 0.1 M triethylamine pH 11.5; Western blot
T1 sequence: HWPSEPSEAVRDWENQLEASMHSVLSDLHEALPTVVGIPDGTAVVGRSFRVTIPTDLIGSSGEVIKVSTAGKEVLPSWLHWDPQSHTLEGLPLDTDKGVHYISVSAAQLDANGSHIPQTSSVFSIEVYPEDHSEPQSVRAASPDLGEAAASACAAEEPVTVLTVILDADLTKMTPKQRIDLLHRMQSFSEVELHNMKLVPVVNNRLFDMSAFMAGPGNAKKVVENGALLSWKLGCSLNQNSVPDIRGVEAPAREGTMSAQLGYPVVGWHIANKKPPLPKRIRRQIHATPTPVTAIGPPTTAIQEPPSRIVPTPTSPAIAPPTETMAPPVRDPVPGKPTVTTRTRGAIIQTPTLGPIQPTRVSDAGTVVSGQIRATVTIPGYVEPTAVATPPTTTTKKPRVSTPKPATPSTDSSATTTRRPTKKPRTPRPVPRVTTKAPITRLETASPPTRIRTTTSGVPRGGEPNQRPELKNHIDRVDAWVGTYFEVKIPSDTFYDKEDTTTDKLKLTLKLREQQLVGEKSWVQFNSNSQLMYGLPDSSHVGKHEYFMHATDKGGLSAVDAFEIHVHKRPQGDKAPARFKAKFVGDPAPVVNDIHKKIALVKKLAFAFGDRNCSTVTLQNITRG

[2] = target: bovine serum albumin (bovine) (UniProt P02769); test: pull-down; negative control of the immunoprecipitation: BSA coupled to CNBr-activated Sepharose; WGA-enriched, digitonin-solubilised rabbit skeletal muscle microsomes; 0.1% digitonin, 50 mM Tris-HCl pH 7.4, 150 mM NaCl; Western blot; only the target purified

## neuronal nitric oxide synthase (rabbit skeletal muscle) (from UniProt O19132 1-1435) (enzyme)
[1]
  binding: binds
[2]
  binding: no binding
